Earlier results on 1 molecule are cited in publication PMC6790288 (The journal of pain : official journal of the American Pain …, 2019).

One may read the Ki as the equilibrium dissociation constant of an inhibitor or competing ligand from its target.

This series concerns the target norepinephrine transporter. The following applies: read-out: inhibition of norepinephrine uptake (Ki); in vitro; cited from earlier work.

With `COc1cccc(C2(O)CCCCC2CN(C)C)c1` (single isomer, unassigned; (-)) [(−)-tramadol], the Ki is 500 to 1600 nM.
